From PMC4440769
Where two headings read alike, the source gives them in different places. These are yes or no findings as the source states them, for the method shown. In cells and extracts the contact can be indirect. Here binding means that the protein was enriched with, or labelled near, the bait; the list need not be complete. Where a sequence is shown, tags or fusion partners need not be part of it.

Chains of the proteins cited; added tags and fusions are not shown.
UniProt Q9UHD2: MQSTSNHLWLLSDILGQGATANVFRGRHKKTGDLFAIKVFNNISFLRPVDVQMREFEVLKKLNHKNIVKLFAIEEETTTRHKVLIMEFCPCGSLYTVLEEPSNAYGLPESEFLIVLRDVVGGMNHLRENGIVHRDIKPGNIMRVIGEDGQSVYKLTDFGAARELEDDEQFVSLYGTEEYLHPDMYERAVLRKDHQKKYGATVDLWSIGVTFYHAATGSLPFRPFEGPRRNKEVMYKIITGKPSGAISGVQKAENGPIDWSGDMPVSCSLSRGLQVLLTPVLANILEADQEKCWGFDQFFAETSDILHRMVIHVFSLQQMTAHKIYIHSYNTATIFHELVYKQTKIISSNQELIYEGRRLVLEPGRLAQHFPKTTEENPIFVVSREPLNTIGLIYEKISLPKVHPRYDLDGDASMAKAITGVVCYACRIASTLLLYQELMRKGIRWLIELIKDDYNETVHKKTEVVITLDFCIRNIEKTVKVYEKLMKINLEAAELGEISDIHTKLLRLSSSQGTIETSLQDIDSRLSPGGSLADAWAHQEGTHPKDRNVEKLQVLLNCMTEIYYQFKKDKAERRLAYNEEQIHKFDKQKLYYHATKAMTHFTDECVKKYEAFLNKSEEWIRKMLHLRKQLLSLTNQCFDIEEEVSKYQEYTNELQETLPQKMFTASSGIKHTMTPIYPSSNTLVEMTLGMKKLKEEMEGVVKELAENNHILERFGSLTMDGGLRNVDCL
UniProt Q13114: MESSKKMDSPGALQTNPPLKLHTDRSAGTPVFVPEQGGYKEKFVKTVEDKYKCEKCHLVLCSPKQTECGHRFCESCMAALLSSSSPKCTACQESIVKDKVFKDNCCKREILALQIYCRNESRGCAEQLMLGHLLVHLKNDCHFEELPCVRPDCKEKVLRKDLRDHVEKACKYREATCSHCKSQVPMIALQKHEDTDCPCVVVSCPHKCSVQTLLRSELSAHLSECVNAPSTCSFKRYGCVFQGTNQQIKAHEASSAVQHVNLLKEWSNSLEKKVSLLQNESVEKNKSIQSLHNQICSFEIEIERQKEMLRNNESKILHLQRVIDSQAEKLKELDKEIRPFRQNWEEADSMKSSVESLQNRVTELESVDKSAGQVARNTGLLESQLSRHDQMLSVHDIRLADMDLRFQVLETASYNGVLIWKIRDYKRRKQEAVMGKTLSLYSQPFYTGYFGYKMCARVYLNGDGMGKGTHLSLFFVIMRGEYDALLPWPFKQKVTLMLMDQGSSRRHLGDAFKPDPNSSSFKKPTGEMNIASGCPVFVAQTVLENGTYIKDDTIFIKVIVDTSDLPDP
UniProt Q96EP0: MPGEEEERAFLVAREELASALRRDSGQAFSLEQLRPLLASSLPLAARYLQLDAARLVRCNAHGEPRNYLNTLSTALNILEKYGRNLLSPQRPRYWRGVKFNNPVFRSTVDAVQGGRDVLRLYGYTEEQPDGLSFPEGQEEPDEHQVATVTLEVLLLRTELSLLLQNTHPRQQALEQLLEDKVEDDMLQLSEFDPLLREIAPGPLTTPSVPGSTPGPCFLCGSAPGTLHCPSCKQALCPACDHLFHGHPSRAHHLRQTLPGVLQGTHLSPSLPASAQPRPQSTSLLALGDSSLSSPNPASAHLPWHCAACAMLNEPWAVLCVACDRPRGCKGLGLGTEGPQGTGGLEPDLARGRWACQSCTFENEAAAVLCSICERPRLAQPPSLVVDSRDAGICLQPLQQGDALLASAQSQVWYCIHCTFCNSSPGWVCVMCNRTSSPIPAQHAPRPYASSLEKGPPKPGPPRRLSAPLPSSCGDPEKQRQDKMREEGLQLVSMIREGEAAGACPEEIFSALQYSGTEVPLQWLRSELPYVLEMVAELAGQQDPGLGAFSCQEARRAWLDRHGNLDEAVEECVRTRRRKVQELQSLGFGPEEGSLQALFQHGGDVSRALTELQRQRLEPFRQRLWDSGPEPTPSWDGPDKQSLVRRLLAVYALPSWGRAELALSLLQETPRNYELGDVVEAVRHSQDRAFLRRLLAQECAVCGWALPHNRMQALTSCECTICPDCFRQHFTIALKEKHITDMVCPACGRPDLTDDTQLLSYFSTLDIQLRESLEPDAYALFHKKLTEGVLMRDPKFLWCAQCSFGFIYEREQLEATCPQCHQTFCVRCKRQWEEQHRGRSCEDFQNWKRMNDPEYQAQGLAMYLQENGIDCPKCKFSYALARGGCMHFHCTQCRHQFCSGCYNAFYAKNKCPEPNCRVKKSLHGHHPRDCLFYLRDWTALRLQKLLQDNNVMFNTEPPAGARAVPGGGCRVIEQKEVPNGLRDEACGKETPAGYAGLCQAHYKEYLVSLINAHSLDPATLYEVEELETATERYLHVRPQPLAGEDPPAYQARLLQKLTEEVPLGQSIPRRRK
UniProt Q13489: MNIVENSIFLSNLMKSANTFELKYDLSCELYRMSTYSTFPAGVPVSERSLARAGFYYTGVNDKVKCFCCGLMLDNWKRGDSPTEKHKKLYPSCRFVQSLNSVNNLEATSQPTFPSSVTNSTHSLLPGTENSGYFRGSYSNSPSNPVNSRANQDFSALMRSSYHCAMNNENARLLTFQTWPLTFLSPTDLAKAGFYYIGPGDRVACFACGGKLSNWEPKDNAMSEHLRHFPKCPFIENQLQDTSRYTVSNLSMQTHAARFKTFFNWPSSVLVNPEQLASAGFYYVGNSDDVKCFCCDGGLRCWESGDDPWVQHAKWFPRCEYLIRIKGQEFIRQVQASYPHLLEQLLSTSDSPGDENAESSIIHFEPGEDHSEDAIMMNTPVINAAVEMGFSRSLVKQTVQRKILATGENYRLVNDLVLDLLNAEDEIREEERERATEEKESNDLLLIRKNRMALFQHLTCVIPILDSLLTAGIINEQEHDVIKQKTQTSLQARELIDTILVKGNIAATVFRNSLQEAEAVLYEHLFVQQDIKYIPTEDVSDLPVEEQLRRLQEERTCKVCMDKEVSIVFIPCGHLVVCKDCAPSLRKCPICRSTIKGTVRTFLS

Legend:
FLAG-TRAF1 [1] = biological target: T1, FLAG-TRAF1 (UniProt Q13077); assay: affinity purification with mass spectrometry
T1 sequence: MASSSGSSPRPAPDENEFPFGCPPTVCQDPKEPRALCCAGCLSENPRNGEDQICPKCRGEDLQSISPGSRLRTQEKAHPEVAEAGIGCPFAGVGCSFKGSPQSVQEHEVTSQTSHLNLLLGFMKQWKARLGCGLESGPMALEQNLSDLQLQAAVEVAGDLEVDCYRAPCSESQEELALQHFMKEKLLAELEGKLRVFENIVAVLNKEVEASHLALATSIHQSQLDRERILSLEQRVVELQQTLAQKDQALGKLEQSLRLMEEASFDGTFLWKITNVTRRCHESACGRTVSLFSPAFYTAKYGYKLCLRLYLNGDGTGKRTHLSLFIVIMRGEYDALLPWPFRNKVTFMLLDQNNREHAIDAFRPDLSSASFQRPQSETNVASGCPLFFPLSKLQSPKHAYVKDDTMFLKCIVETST

FLAG-TRAF1 [2] = biological target: T1, FLAG-TRAF1; assay: affinity purification with mass spectrometry; remark: listed apart in the source

In the case of “HOIL-1L (endogenous, 293) (from UniProt Q9BYM8-1 1-510)”, the binding (FLAG-TRAF1 [1]) is reported as “binds”.

For “TBK1 (endogenous, 293) (from UniProt Q9UHD2 1-729)”, the binding (FLAG-TRAF1 [1]) was “binds”.

With “TRAF3 (endogenous, 293) (from UniProt Q13114 1-568)” the binding (FLAG-TRAF1 [1]) was “binds”.

For “SQSTM1/P62 (endogenous, 293) (from UniProt Q13501 1-440)”, the binding (FLAG-TRAF1 [1]) was “binds”.

“HOIP (endogenous, 293) (from UniProt Q96EP0 1-1072)” was tested, and the binding (FLAG-TRAF1 [1]) was “binds”.

For “cIAP2 (endogenous, 293) (from UniProt Q13489 1-604)”, the binding (FLAG-TRAF1 [1]) was “binds”.

B1: TANK (endogenous, 293) (protein, UniProt Q92844 1-425)
chain: MDKNIGEQLNKAYEAFRQACMDRDSAVKELQQKTENYEQRIREQQEQLSLQQTIIDKLKSQLLLVNSTQDNNYGCVPLLEDSETRKNNLTLDQPQDKVISGIAREKLPKVRRQEVSSPRKETSARSLGSPLLHERGNIEKTFWDLKEEFHKICMLAKAQKDHLSKLNIPDTATETQCSVPIQCTDKTDKQEALFKPQAKDDINRGAPSITSVTPRGLCRDEEDTSFESLSKFNVKFPPMDNDSTFLHSTPERPGILSPATSEAVCQEKFNMEFRDNPGNFVKTEETLFEIQGIDPIASAIQNLKTTDKTKPSNLVNTCIRTTLDRAACLPPGDHNALYVNSFPLLDPSDAPFPSLDSPGKAIRGPQQPIWKPFPNQDSDSVVLSGTDSELHIPRVCEFCQAVFPPSITSRGDFLRHLNSHFNGET
B1 was tested, and the binding (FLAG-TRAF1 [2]) was “binds”.
